Reference: PubChem BioAssay AID504744 (Drosophila RNAi Screening Center, 2011)

Assay: 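Identify dsRNAs that increase or decrease phospho-dAkt after insulin treatment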 (primary screen)
Cell system: Drosophila Kc167 cells
Reagents: long dsRNA against Drosophila genes, 250 ng dsRNA per well of a 384-well plate
Duration: 3 days of knock-down, then overnight serum-free starvation before stimulation
Challenge: bovine insulin at 387 nM for 10 minutes after 12 h without serum
Measured: 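In-cell antibody fluorescence for phospho-dAkt in each well over DNA-dye signal, with log2 residuals expressed as z-scores adjusted for cell count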
Call rule: 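Under insulin, a gene counts as a hit if the average z-score of two replicates lies above 2.5 or below -2.5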
In all, the deposit lists about 23,000 reagents; below is an unselected part of those with a known target gene and a result. In the full data, 98 (0.43%) were called active. 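Only hit calls are given; the phospho-dAkt signals, z-scores and hit direction were not deposited.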 Names joined by + are all predicted targets of the reagent.

The first 5 entries as a preview:
Trpm (GeneID 36694) [DRSC06629] | activity call: inactive
Trpm (GeneID 36694) [DRSC21566] | activity call: inactive
Prosalpha6 (GeneID 34359) [DRSC03401] | activity call: inactive
bbx + waw [DRSC20575] | activity call: inactive
bbx + waw [DRSC20589] | activity call: inactive

Results, repeating the preview:
Trpm (GeneID 36694) [DRSC06629] | activity call: inactive
Trpm (GeneID 36694) [DRSC21566] | activity call: inactive
Prosalpha6 (GeneID 34359) [DRSC03401] | activity call: inactive
bbx + waw [DRSC20575] | activity call: inactive
bbx + waw [DRSC20589] | activity call: inactive
CNMa (GeneID 38242) [DRSC08405] | activity call: inactive
Tengl3 (GeneID 33404) [DRSC22288] | activity call: inactive
Ugt302C1 (GeneID 53510) [DRSC15353] | activity call: inactive
sug (GeneID 36424) [DRSC06855] | activity call: inactive
Dpp10 (GeneID 33923) [DRSC00942] | activity call: inactive
Dpp10 (GeneID 33923) [DRSC02139] | activity call: inactive
dor (GeneID 31118) [DRSC18765] | activity call: inactive
CG5404 (GeneID 41901) [DRSC15793] | activity call: inactive
CG16704 (GeneID 33589) [DRSC00475] | activity call: inactive
CG12716 (GeneID 32248) [DRSC19493] | activity call: inactive
CG1674 (GeneID 43780) [DRSC17142] | activity call: inactive
CG13081 (GeneID 35245) [DRSC02185] | activity call: inactive
CG34319 (retired record) (GeneID 5740276) [DRSC18138] | activity call: inactive
Gr89a (GeneID 42007) [DRSC15023] | activity call: inactive
CG13385 (GeneID 34164) [DRSC02259] | activity call: inactive
CG40583 (retired record) (GeneID 5740259) [DRSC20938] | activity call: inactive
CG14835 (GeneID 38832) [DRSC10205] | activity call: inactive
Non2 (GeneID 38341) [DRSC08272] | activity call: inactive
CG17097 (GeneID 34461) [DRSC02569] | activity call: inactive
pxb (GeneID 41899) [DRSC13110] | activity call: inactive
pxb (GeneID 41899) [DRSC14996] | activity call: inactive
pxb (GeneID 41899) [DRSC14997] | activity call: inactive
pxb (GeneID 41899) [DRSC22225] | activity call: inactive
CG13460 (GeneID 39638) [DRSC10007] | activity call: inactive
Takl1 (GeneID 318725) [DRSC13443] | activity call: inactive
Zaf1 (GeneID 41394) [DRSC16121] | activity call: inactive
Hml (GeneID 39529) [DRSC11183] | activity call: inactive
Gprk2 (GeneID 49045) [DRSC16682] | activity call: inactive
CG1368 (GeneID 32361) [DRSC19537] | activity call: inactive
CG17896 (GeneID 30995) [DRSC18502] | activity call: inactive
l(3)72Dn (GeneID 39774) [DRSC10468] | activity call: inactive
CG5084 (GeneID 37051) [DRSC06913] | activity call: inactive
CG15756 (GeneID 32308) [DRSC19721] | activity call: inactive
Tmem131 (GeneID 36761) [DRSC07154] | activity call: inactive
zpg (GeneID 251414) [DRSC09702] | activity call: inactive
CG12376 (GeneID 35857) [DRSC06144] | activity call: inactive
CG7675 (GeneID 42211) [DRSC16280] | activity call: inactive
Irk1 (GeneID 42742) [DRSC16106] | activity call: inactive
Cad96Ca (GeneID 43026) [DRSC14220] | activity call: inactive
Cad96Ca (GeneID 43026) [DRSC16693] | activity call: inactive
Fitm (GeneID 38596) [DRSC09772] | activity call: inactive
UQCR-C2 (GeneID 39846) [DRSC10405] | activity call: inactive
Pcyt2 (GeneID 38180) [DRSC08531] | activity call: inactive
CG31189 (GeneID 42487) [DRSC16198] | activity call: inactive
Tpl94D (GeneID 318658) [DRSC13593] | activity call: inactive
CR30409 (GeneID 37696) [DRSC22058] | activity call: inactive
CG30383 (GeneID 246583) [DRSC05062] | activity call: inactive
CG15109 (GeneID 37195) [DRSC06536] | activity call: inactive
Cdc45 (GeneID 31052) [DRSC17747] | activity call: inactive
Cdc45 (GeneID 31052) [DRSC18164] | activity call: inactive
CG5762 (GeneID 42907) [DRSC15869] | activity call: inactive
gig (GeneID 40201) [DRSC11351] | activity call: active
